Source: publication PMC6890249
These are yes or no findings as the source states them, for the method shown. In cells and extracts the contact can be indirect. A result given as binding can be weak or reduced; the word gives no strength. Sequences can lack the tags named with a protein.

Target: T1, FLAG-tagged CLASP1 (H. sapiens CLASP1 isoform 2) (human) (UniProt Q7Z460)
T1 sequence: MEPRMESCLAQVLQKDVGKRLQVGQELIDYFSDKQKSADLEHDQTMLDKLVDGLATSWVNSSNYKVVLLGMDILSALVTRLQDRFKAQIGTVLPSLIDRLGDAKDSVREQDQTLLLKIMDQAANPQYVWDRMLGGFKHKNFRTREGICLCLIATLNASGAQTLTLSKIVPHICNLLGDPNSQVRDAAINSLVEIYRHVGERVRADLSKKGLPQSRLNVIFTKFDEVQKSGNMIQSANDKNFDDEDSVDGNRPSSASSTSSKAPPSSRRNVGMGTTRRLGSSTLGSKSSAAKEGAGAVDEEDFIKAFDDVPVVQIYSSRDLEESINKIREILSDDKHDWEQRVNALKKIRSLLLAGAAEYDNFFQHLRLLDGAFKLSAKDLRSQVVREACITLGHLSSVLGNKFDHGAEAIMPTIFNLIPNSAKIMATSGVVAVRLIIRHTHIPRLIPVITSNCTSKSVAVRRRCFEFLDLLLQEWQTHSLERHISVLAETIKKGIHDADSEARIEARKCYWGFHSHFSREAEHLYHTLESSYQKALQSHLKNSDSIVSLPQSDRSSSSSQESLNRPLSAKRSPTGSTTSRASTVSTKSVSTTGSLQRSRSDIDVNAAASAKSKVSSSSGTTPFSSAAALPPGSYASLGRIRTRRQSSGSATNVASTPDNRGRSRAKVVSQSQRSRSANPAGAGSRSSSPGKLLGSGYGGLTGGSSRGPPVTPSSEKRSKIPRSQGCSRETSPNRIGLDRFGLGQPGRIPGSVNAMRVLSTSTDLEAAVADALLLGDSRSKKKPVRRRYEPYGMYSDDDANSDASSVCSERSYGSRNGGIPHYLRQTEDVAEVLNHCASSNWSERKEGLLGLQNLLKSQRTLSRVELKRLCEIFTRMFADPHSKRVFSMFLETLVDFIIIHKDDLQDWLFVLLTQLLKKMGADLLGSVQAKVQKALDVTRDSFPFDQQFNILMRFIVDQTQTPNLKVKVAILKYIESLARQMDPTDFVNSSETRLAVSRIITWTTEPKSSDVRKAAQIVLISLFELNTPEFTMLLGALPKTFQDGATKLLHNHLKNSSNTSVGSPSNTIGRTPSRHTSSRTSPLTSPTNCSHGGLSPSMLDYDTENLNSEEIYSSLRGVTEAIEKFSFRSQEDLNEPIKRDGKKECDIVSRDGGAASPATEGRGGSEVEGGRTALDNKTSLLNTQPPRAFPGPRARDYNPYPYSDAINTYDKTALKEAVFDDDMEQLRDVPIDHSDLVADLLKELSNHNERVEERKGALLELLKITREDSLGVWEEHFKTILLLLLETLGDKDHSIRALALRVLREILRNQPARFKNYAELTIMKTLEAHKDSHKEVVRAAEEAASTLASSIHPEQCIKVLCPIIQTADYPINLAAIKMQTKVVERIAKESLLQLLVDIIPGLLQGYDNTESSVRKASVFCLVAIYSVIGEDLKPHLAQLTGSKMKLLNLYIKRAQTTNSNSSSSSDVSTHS
Assay: co-IP; FLAG-tagged CLASP1 coexpressed with HA-tagged kinases in HEK293T; anti-FLAG M2 magnetic beads, 3xFLAG peptide elution; Western blot

- binding: binds
Substance: HA-tagged MARK2 (transcript variant 3, MARK2 1–724) (from UniProt Q7KZI7-16) (enzyme)
